Laboratory results taken from US12714679B2, “Fullerenes to treat diseases and conditions” (The Cleveland Clinic Foundation, priority 2018, dated 2026).
At least one read-out could not be matched to a standard name with certainty.

Test: Lead acetate (PbA/PbS) assay, catalytic H2S production from cysteine
Format: biochemical
Details: substrate L-Cysteine
Method: Further work was conducted as follows with regard to the catalytic production of H2S by PHFs. PHF (SJJR; 10 mg/mL) was added to a mixture of L-cysteine (10 mM) and […] (PLP; 1 mM) in a 96-well plate and then covered with a blotting paper saturated with lead acetate. After 24 hours, the lead acetate paper was removed and scanned. The lead sulfide dots were analyzed for average integrated density using ImageJ. After every 24 hours, the wells were replenished with L-cysteine (10 mM) and covered with the lead acetate paper and the lead sulfide dots were analyzed.
Lead acetate assay: The kinetics and catalysis coefficients for PHF catalyzed H2S production were determined using lead acetate assay (PbA/PbS assay) as generally described in Hine and Mitchell, “Endpoint and Kinetic Measurement of Hydrogen Sulfide Production Capacity in Tissue Extracts” Bio-Protocol, 7 (13), e2382, 2017). Briefly: Reaction mixtures (150 μL/well) containing PHF or enzyme (CGL), enzyme co-factor (PLP) and substrate (e.g., cysteine) were tested in 96-well plates Immediately after addition of catalyst, 96-well plates were covered with lead acetate saturated paper and placed inside a 37° C. cell culture incubator. At a predetermined time point, the lead acetate paper was removed and scanned, and the lead sulfide dots analyzed with ImageJ using the IntDen function. […]

B1: cystathionine γ-lyase (protein, UniProt P32929 1-405, looked up)
Cystathionine gamma-lyase: MQEKDASSQGFLPHFQHFATQAIHVGQDPEQWTSRAVVPPISLSTTFKQGAPGQHSGFEYSRSGNPTRNCLEKAVAALDGAKYCLAFASGLAATVTITHLLKAGDQIICMDDVYGGTNRYFRQVASEFGLKISFVDCSKIKLLEAAITPETKLVWIETPTNPTQKVIDIEGCAHIVHKHGDIILVVDNTFMSPYFQRPLALGADISMYSATKYMNGHSDVVMGLVSVNCESLHNRLRFLQNSLGAVPSPIDCYLCNRGLKTLHVRMEKHFKNGMAVAQFLESNPWVEKVIYPGLPSHPQHELVKRQCTGCTGMVTFYIKGTLQHAEIFLKNLKLFTLAESLGGFESLAELPAIMTHASVLKNDRDVLGISDTLIRLSVGLEDEEDLLEDLDQALKAAHPPSGSHS
notes: enzyme producing H2S from cysteine, comparator catalyst
In the case of B1, the KCAT/KM (With PLP) is reported as 0.507 M⁻¹ s⁻¹ and the KCAT/KM (Without PLP) is reported as 0.038 M⁻¹ s⁻¹.
